Measured values taken from patent publication US20240150422A1.
These are yes or no findings as the source states them, for the method shown. Some binding calls cover weakened binding; strength is not graded here.

Amino acid sequences for entries named in this document (tags omitted). A change or cut given only in a name is not applied to a line headed by its entry.
UniProt Q99665: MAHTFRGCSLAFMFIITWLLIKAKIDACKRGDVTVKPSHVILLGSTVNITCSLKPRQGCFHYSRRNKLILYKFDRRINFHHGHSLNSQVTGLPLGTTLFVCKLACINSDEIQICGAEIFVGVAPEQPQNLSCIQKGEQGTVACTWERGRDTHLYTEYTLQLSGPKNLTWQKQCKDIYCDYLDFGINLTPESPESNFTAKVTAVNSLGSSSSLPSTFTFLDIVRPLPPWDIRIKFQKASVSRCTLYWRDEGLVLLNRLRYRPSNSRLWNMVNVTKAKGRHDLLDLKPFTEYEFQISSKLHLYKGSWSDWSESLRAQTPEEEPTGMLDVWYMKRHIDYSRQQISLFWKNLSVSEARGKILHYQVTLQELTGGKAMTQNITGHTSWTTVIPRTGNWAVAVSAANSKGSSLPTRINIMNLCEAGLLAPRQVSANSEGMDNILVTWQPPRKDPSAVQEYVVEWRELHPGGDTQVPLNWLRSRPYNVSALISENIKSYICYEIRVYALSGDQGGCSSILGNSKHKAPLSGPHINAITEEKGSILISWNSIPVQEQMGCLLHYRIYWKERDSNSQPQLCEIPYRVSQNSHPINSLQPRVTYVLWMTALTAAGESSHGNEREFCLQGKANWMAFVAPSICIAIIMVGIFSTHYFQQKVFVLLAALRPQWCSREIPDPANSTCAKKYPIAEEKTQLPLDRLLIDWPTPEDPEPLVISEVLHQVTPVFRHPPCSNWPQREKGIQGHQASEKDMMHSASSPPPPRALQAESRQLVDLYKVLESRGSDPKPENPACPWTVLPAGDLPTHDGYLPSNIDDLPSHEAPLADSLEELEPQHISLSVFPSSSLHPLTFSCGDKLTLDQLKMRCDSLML
UniProt P29459: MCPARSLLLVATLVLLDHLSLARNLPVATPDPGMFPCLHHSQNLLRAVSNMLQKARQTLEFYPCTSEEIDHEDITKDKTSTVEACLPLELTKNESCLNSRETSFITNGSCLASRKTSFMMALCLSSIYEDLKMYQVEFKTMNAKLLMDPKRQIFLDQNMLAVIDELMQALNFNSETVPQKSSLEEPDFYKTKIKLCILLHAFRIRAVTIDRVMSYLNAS

Experiments:
[1] = target: truncated form of the IL-12Rβ2 extracellular region (domains 1-3) (human) (UniProt Q99665); experiment: SPR (Biacore T100), IL-12 Fc captured on protein A chip, IL-12Rβ2 domains 1-3 as analyte
[2] = target: truncated form of the IL-12Rβ2 extracellular region (domains 1-3) (human) (UniProt Q99665); experiment: SPR (Biacore T100, 20 C); IL-12 Fc captured on a protein A chip, IL-12Rbeta2 (domains 1-3) injected at 7.8-2000 nM
[3] = target: truncated form of the IL-12Rβ2 extracellular region (domains 1-3) (human) (UniProt Q99665); experiment: SPR as in Example 3; immobilized IL-12 Fc, IL-12Rbeta2 injected at 0.7-500 nM

Substance	binding [1]	binding [2]	binding [3]
IL-12 Fc single mutant D126A (Fc-C-terminal fusion format of Example 1) (from UniProt P29459 23-219; P29460 23-328) (Fc fusion)	binds	binds	
IL-12 Fc single mutant K168A (Fc-C-terminal fusion format of Example 1) (from UniProt P29459 23-219; P29460 23-328) (Fc fusion)	binds	binds	
IL-12 Fc single mutant P127A (Fc-C-terminal fusion format of Example 1) (from UniProt P29459 23-219; P29460 23-328) (Fc fusion)	binds	binds	
wild-type IL-12 heterodimeric Fc fusion protein (IgG1Fc(knob)-IL12p35 / IgG1Fc(hole)-IL12p40) (from UniProt P29459 23-219; P29460 23-328)		binds	binds
